From PMC3374797, “Intrinsically Unstructured Domain 3 of Hepatitis C Virus NS5A Forms a “Fuzzy Complex” with VAPB-MSP Domain Which Carries ALS-Causing Mutations” (PLoS ONE, 2012)

Protein sequences, listed by entry. Tags and fused reporters are not part of them. Lines headed by an entry give the natural chain unless they say otherwise; changes in a name come on top.
UniProt P54764: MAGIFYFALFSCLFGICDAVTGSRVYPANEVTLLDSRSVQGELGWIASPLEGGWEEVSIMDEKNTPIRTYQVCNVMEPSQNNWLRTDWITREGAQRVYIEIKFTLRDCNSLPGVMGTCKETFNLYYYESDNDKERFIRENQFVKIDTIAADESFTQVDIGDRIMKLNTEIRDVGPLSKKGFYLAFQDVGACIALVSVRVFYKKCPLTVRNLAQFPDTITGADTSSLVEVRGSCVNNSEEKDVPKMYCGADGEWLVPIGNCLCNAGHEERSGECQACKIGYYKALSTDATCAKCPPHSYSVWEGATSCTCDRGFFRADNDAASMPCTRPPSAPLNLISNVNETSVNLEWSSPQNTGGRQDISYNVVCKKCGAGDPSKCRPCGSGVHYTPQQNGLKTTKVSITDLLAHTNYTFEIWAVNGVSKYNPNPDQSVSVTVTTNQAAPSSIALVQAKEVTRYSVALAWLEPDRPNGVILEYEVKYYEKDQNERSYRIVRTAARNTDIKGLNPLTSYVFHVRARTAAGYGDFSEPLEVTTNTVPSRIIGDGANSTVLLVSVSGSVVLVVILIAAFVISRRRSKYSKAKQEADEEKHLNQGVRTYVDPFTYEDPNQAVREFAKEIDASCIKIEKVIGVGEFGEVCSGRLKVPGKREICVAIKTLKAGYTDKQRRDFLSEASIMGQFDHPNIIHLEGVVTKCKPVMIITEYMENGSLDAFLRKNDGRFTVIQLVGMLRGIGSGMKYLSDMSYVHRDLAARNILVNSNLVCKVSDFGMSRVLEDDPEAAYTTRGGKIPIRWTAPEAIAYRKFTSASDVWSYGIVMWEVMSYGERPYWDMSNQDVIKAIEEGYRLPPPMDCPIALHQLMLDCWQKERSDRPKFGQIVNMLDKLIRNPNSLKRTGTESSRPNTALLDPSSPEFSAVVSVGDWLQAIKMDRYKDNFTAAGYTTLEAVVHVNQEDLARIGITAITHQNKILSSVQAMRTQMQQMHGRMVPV

Tests used:
[1] = biological target: T1, VAPB-CC(151–195) (human) (UniProt O95292); assay: NMR titration; both purified
T1 sequence: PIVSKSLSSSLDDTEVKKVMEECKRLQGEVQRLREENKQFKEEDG

[2] = biological target: VAPB-MSP(1–125) (Homo sapiens, UniProt O95292); assay: NMR titration; both purified

| binding [2] | Substance | binding [1] |
| --- | --- | --- |
| – | NS5A(313–366) (domain or fragment) | no binding |
| binds | EphA4 ligand-binding domain (LBD) (from UniProt P54764) (domain or fragment) | – |
| – | NS5A(300–447) (domain or fragment) | no binding (tested: molar ratio 1:4 (VAPB/NS5A)) |
| – | NS5A(251–380) (domain or fragment) | no binding |
| – | NS5A(33–447) (domain or fragment) | no binding (tested: molar ratio 1:2.5 (VAPB-CC/NS5A)) |

No constants are given. Whether binding was seen depends on the method and setting. For some assays here: A result given as binding can be weak or reduced; the word gives no strength.
